# Test results published in the supplement of paper PMC8728848.
# The other results are listed elsewhere or left out.
# B1: CD23 (Homo sapiens) (protein)
# chain: MELQVSSGFVCNTCPEKWINFQRKCYYFGKGTKQWVHARYACDDMEGQLVSIHSPEEQDFLTKHASHTGSWIGLRNLDLKGEFIWVDGSHVDYSNWAPGEPTSRSQGEDCVMMRGSGRWNDAFCDRKLGAWVCDRLATCTPPASEGSAESMGPDSRPDPDGRLPTPSAPLHS
# Columns and labels:
# Assay in all cases: glycan array binding signal (z-score within array); higher = stronger binding
# Conditions in all cases: glycan notation: IUPAC condensed, linker removed
# Gal(b1-3)GalNAc = biological target: Gal(b1-3)GalNAc
# In short: (§1)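 Columns mapping to the same glycan were averaged after glycan names were converted to IUPAC-condensed notation. The data come from 3228 arrays in the Consortium for Functional Glycomics database, limited to those with an available protein sequence. Binding is reported as a within-array Z-score averaged across arrays of one protein sequence and across linkers.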
# [1] = biological target: Gal(b1-3)GalNAc(b1-3)Gal(a1-4)Gal(b1-4)Glc
# In short: as §1
# [2] = biological target: Gal(b1-3)GalNAc(b1-4)Gal(b1-4)Glc
# In short: as §1
# [3] = biological target: Gal(b1-3)GalNAc(b1-4)[Neu5Ac(a2-3)]Gal(b1-4)Glc
# In short: as §1
# Gal(b1-3)GlcNAc = biological target: Gal(b1-3)GlcNAc
# In short: as §1
# [4] = biological target: Gal(b1-3)GlcNAc(b1-3)Gal(b1-3)GlcNAc
# In short: as §1
# [5] = biological target: Gal(b1-3)GlcNAc(b1-3)Gal(b1-4)Glc
# In short: as §1
# [6] = biological target: Gal(b1-3)GlcNAc(b1-3)Gal(b1-4)GlcNAc
# In short: as §1
# [7] = biological target: Gal(b1-3)[Fuc(a1-4)]GlcNAc
# In short: as §1
# [8] = biological target: Gal(b1-3)[Fuc(a1-4)]GlcNAc(b1-3)Gal(b1-3)[Fuc(a1-4)]GlcNAc
# In short: as §1
# [9] = biological target: Gal(b1-3)[Fuc(a1-4)]GlcNAc(b1-3)Gal(b1-4)GlcNAc
# In short: as §1
# [10] = biological target: Gal(b1-3)[Fuc(a1-4)]GlcNAc(b1-3)Gal(b1-4)[Fuc(a1-3)]GlcNAc
# In short: as §1
# [11] = biological target: Gal(b1-3)[GlcNAc(b1-6)]GalNAc
# In short: as §1
# [12] = biological target: Gal(b1-3)[Neu5Ac(a2-6)]GalNAc
# In short: as §1
# [13] = biological target: Gal(b1-3)[Neu5Ac(a2-6)]GlcNAc(b1-6)Gal(b1-4)Glc
# In short: as §1
# [14] = biological target: Gal(b1-3)[Neu5Ac(b2-6)]GalNAc
# In short: as §1
# [15] = biological target: Gal(b1-4)GalNAc(a1-3)[Fuc(a1-2)]Gal(b1-4)GlcNAc
# In short: as §1
# [16] = biological target: Gal(b1-4)GalNAc(b1-3)[Fuc(a1-2)]Gal(b1-4)GlcNAc
# In short: as §1
# Gal(b1-4)Glc = biological target: Gal(b1-4)Glc
# In short: as §1
# Gal(b1-4)Glc6S = biological target: Gal(b1-4)Glc6S
# In short: as §1
# Gal(b1-4)GlcNAc = biological target: Gal(b1-4)GlcNAc
# In short: as §1
# [17] = biological target: Gal(b1-4)GlcNAc(b1-2)Man(a1-3)[Gal(b1-4)GlcNAc(b1-2)Man(a1-6)]Man(b1-4)GlcNAc(b1-4)GlcNAc
# In short: as §1
# [18] = biological target: Gal(b1-4)GlcNAc(b1-3)Gal(b1-3)GlcNAc
# In short: as §1
# [19] = biological target: Gal(b1-4)GlcNAc(b1-3)Gal(b1-4)Glc
# In short: as §1
# [20] = biological target: Gal(b1-4)GlcNAc(b1-3)Gal(b1-4)GlcNAc
# In short: as §1
# [21] = biological target: Gal(b1-4)GlcNAc(b1-3)Gal(b1-4)GlcNAc(b1-3)Gal(b1-4)GlcNAc
# In short: as §1
# [22] = biological target: Gal(b1-4)GlcNAc(b1-3)Gal(b1-4)[Fuc(a1-3)]GlcNAc(b1-3)Gal(b1-4)[Fuc(a1-3)]GlcNAc
# In short: as §1
# [23] = biological target: Gal(b1-4)GlcNAc(b1-3)GalNAc
# In short: as §1
# [24] = biological target: Gal(b1-4)GlcNAc(b1-3)[Gal(b1-4)GlcNAc(b1-6)]GalNAc
# In short: as §1
# [25] = biological target: Gal(b1-4)GlcNAc(b1-6)Gal(b1-4)GlcNAc(b1-6)GalNAc
# In short: as §1
# [26] = biological target: Gal(b1-4)GlcNAc(b1-6)GalNAc
# In short: as §1
# [27] = biological target: Gal(b1-4)GlcNAc(b1-6)[Gal(b1-3)]GalNAc
# In short: as §1
# Gal3S(b1-3)GalNAc = biological target: Gal3S(b1-3)GalNAc
# In short: as §1
# Gal3S(b1-3)GlcNAc = biological target: Gal3S(b1-3)GlcNAc
# In short: as §1
# [28] = biological target: Gal3S(b1-3)[Fuc(a1-4)]GlcNAc
# In short: as §1
# Gal3S(b1-4)Glc = biological target: Gal3S(b1-4)Glc
# In short: as §1
# Gal3S(b1-4)Glc6S = biological target: Gal3S(b1-4)Glc6S
# In short: as §1
# Gal3S(b1-4)GlcNAc = biological target: Gal3S(b1-4)GlcNAc
# In short: as §1
# Gal3S(b1-4)GlcNAc6S = biological target: Gal3S(b1-4)GlcNAc6S
# In short: as §1
# [29] = biological target: Gal3S(b1-4)[Fuc(a1-3)]Glc
# In short: as §1
# Gal3S6S(b1-4)GlcNAc = biological target: Gal3S6S(b1-4)GlcNAc
# In short: as §1
# Gal3S6S(b1-4)GlcNAc6S = biological target: Gal3S6S(b1-4)GlcNAc6S
# In short: as §1
# Gal4S(b1-4)GlcNAc = biological target: Gal4S(b1-4)GlcNAc
# In short: as §1
# Gal4S6S(b1-4)GlcNAc = biological target: Gal4S6S(b1-4)GlcNAc
# In short: as §1
# Gal6S(b1-4)Glc = biological target: Gal6S(b1-4)Glc
# In short: as §1
# Gal6S(b1-4)Glc6S = biological target: Gal6S(b1-4)Glc6S
# In short: as §1
# Gal6S(b1-4)GlcNAc = biological target: Gal6S(b1-4)GlcNAc
# In short: as §1
# GalNAc(a1-3)Gal = biological target: GalNAc(a1-3)Gal
# In short: as §1
# GalNAc(a1-3)GalNAc = biological target: GalNAc(a1-3)GalNAc
# In short: as §1
# [30] = biological target: GalNAc(b1-3)Gal(a1-4)Gal(b1-4)GlcNAc
# In short: as §1
# GalNAc(b1-3)GalNAc = biological target: GalNAc(b1-3)GalNAc
# In short: as §1
# GalNAc(b1-4)GlcNAc = biological target: GalNAc(b1-4)GlcNAc
# In short: as §1
# Glc(a1-4)Glc = biological target: Glc(a1-4)Glc
# In short: as §1
# Glc(a1-6)Glc(a1-6)Glc = biological target: Glc(a1-6)Glc(a1-6)Glc
# In short: as §1
# Glc(b1-4)Glc = biological target: Glc(b1-4)Glc
# In short: as §1
# Glc(b1-6)Glc = biological target: Glc(b1-6)Glc
# In short: as §1
# GlcA(b1-3)Gal = biological target: GlcA(b1-3)Gal
# In short: as §1
# GlcA(b1-6)Gal = biological target: GlcA(b1-6)Gal
# In short: as §1
# [31] = biological target: GlcNAc(a1-3)Gal(b1-4)GlcNAc
# In short: as §1
# [32] = biological target: GlcNAc(a1-6)Gal(b1-4)GlcNAc
# In short: as §1
binder,measurement,setting,value
B1,glycan array binding signal (z-score),Gal(b1-3)GalNAc,-0.398
same,glycan array binding signal (z-score),[1],-0.549
same,glycan array binding signal (z-score),[2],-0.307
same,glycan array binding signal (z-score),[3],-0.259
same,glycan array binding signal (z-score),Gal(b1-3)GlcNAc,-0.084
same,glycan array binding signal (z-score),[4],-0.335
same,glycan array binding signal (z-score),[5],-0.654
same,glycan array binding signal (z-score),[6],-0.512
same,glycan array binding signal (z-score),[7],-0.095
same,glycan array binding signal (z-score),[8],0.311
same,glycan array binding signal (z-score),[9],-0.479
same,glycan array binding signal (z-score),[10],-0.3
same,glycan array binding signal (z-score),[11],-0.163
same,glycan array binding signal (z-score),[12],-0.376
same,glycan array binding signal (z-score),[13],-0.382
same,glycan array binding signal (z-score),[14],-0.587
same,glycan array binding signal (z-score),[15],-0.172
same,glycan array binding signal (z-score),[16],0.124
same,glycan array binding signal (z-score),Gal(b1-4)Glc,-0.405
same,glycan array binding signal (z-score),Gal(b1-4)Glc6S,-0.025
same,glycan array binding signal (z-score),Gal(b1-4)GlcNAc,0.145
same,glycan array binding signal (z-score),[17],-0.225
same,glycan array binding signal (z-score),[18],-0.291
same,glycan array binding signal (z-score),[19],-0.334
same,glycan array binding signal (z-score),[20],-0.486
same,glycan array binding signal (z-score),[21],-0.282
same,glycan array binding signal (z-score),[22],0.338
same,glycan array binding signal (z-score),[23],-0.738
same,glycan array binding signal (z-score),[24],0.423
same,glycan array binding signal (z-score),[25],-0.714
same,glycan array binding signal (z-score),[26],-0.348
same,glycan array binding signal (z-score),[27],-0.202
same,glycan array binding signal (z-score),Gal3S(b1-3)GalNAc,-0.242
same,glycan array binding signal (z-score),Gal3S(b1-3)GlcNAc,0.161
same,glycan array binding signal (z-score),[28],-0.092
same,glycan array binding signal (z-score),Gal3S(b1-4)Glc,-0.171
same,glycan array binding signal (z-score),Gal3S(b1-4)Glc6S,-0.033
same,glycan array binding signal (z-score),Gal3S(b1-4)GlcNAc,-0.17
same,glycan array binding signal (z-score),Gal3S(b1-4)GlcNAc6S,0.225
same,glycan array binding signal (z-score),[29],0.023
same,glycan array binding signal (z-score),Gal3S6S(b1-4)GlcNAc,-0.509
same,glycan array binding signal (z-score),Gal3S6S(b1-4)GlcNAc6S,0.475
same,glycan array binding signal (z-score),Gal4S(b1-4)GlcNAc,0.522
same,glycan array binding signal (z-score),Gal4S6S(b1-4)GlcNAc,0.021
same,glycan array binding signal (z-score),Gal6S(b1-4)Glc,0.073
same,glycan array binding signal (z-score),Gal6S(b1-4)Glc6S,0.094
same,glycan array binding signal (z-score),Gal6S(b1-4)GlcNAc,0.233
same,glycan array binding signal (z-score),GalNAc(a1-3)Gal,0.781
same,glycan array binding signal (z-score),GalNAc(a1-3)GalNAc,-0.43
same,glycan array binding signal (z-score),[30],0.119
same,glycan array binding signal (z-score),GalNAc(b1-3)GalNAc,-0.029
same,glycan array binding signal (z-score),GalNAc(b1-4)GlcNAc,-0.48
same,glycan array binding signal (z-score),Glc(a1-4)Glc,-0.129
same,glycan array binding signal (z-score),Glc(a1-6)Glc(a1-6)Glc,-0.606
same,glycan array binding signal (z-score),Glc(b1-4)Glc,-0.778
same,glycan array binding signal (z-score),Glc(b1-6)Glc,-0.392
same,glycan array binding signal (z-score),GlcA(b1-3)Gal,-0.353
same,glycan array binding signal (z-score),GlcA(b1-6)Gal,-0.165
same,glycan array binding signal (z-score),[31],-0.441
same,glycan array binding signal (z-score),[32],-0.329

# 3 entries drawn at random from the list so far, as already listed:
binder,measurement,setting,value
B1,glycan array binding signal (z-score),[31],-0.441
same,glycan array binding signal (z-score),[14],-0.587
same,glycan array binding signal (z-score),[5],-0.654
